From patent US8177962B2, “Metal corrosion inhibitor and hydrogen chloride formation inhibitor in a crude oil atmospheric distillation unit” (Kurita Water Industries, Ltd., priority 2002, dated 2012)
Where a name gives a salt, the structure may show the parent alone.

Key:
[1] = Corrosion test of hydrochlorides on carbon steel test pieces; details: hydrochloride of the named base, 50% by mass in pure water, 20 hours at 50° C., argon deaeration
[2] = Distillation test (JIS K2275): chloride ion in the distillate of gas oil with magnesium chloride/base test solution; details: for Chloride ion concentration: magnesium chloride:base mole ratio 1:2, test solution 5% by mass in gas oil, distilled 0.5 hours at 100° C. to maximum 200° C., in distillate; for hydrogen chloride formation inhibiting effect or hydrogen chloride neutralizing effect: versus test solution 5 (no base) as blank
[3] = Corrosiveness test of hydrochlorides on mild steel test pieces; details: 50% by mass aqueous solution, 18 hours at 90° C., nitrogen deaeration
[4] = Quantity of ammonia or amines needed to reach a given boiler water pH in a test boiler; details: 170° C., 0.8 Mpa, pure feed water

With `NCCO` [Monoethanolamine] the “Corrosion speed (mdd)” value [1] was 132 mdd, the “Chloride ion concentration” value [2] was 140 mg/L and the “hydrogen chloride formation inhibiting effect or hydrogen chloride neutralizing effect” value [2] was “neither monoethanolamine nor dimethylethanolamine exhibited any hydrogen chloride formation inhibiting effect or hydrogen chloride neutralizing effect”.
With `COCCCN` [3-methoxypropylamine] the “Corrosion speed (mdd)” value [1] was 480 mdd.
In the case of `N` [Ammonia], the “Corrosion speed (mdd)” value [1] is reported as 256 mdd.
With Dimethylethanolamine the “Chloride ion concentration” value [2] was 140 mg/L and the “hydrogen chloride formation inhibiting effect or hydrogen chloride neutralizing effect” value [2] was “neither monoethanolamine nor dimethylethanolamine exhibited any hydrogen chloride formation inhibiting effect or hydrogen chloride neutralizing effect”.
In the case of `CN(C)CCO.Cl` [Dimethylethanolamine hydrochloride], the “Corrosion speed (mdd)” value [3] is reported as 288 mdd.
For `C1COCCN1` [Morpholine], the “quantity added necessary to achieve boiler water pH, mass ratio with choline given as 1” value ([4]; boiler water pH (25° C.) 10.0) was 53.0, the “quantity added necessary to achieve boiler water pH, mass ratio with choline given as 1” value ([4]; boiler water pH (25° C.) 10.5) was 159.1 and the “quantity added necessary to achieve boiler water pH, mass ratio with choline given as 1” value ([4]; boiler water pH (25° C.) 11.0) was 424.2.
In the case of `NC1CCCCC1` [Cyclohexylamine], the “quantity added necessary to achieve boiler water pH, mass ratio with choline given as 1” value ([4]; boiler water pH (25° C.) 10.0) is reported as 20.3, the “quantity added necessary to achieve boiler water pH, mass ratio with choline given as 1” value ([4]; boiler water pH (25° C.) 10.5) is reported as 28.0 and the “quantity added necessary to achieve boiler water pH, mass ratio with choline given as 1” value ([4]; boiler water pH (25° C.) 11.0) is reported as 44.8.
In the case of `C[N+](C)(C)CCO.[OH-]` [Choline, (β-hydroxyethyl)trimethylammonium hydroxide], the “quantity added necessary to achieve boiler water pH, mass ratio with choline given as 1” value ([4]; boiler water pH (25° C.) 10.0) is reported as 1.0, the “quantity added necessary to achieve boiler water pH, mass ratio with choline given as 1” value ([4]; boiler water pH (25° C.) 10.5) is reported as 1.0 and the “quantity added necessary to achieve boiler water pH, mass ratio with choline given as 1” value ([4]; boiler water pH (25° C.) 11.0) is reported as 1.0. The “Corrosion speed (mdd)” value [1] was 32 mdd, the “Chloride ion concentration” value [2] was 2.8 mg/L and the “hydrogen chloride formation inhibiting effect or hydrogen chloride neutralizing effect” value [2] was “equivalent to or greater than that of sodium hydroxide”.
In the case of `[Na+].[OH-]` [Sodium hydroxide], the “Chloride ion concentration” value [2] is reported as 5.4 mg/L.
In the case of `NCCO` [Monoethanolamine hydrochloride], the “Corrosion speed (mdd)” value [3] is reported as 132 mdd.
With `C[N+](C)(C)CCO.[Cl-]` [Choline hydrochloride (choline chloride), choline chloride] the “Corrosion speed (mdd)” value [3] was 32 mdd.
